{"sequences": {"note": "Amino acid sequences for entries named in this document (tags omitted).", "UniProt P33261, whole entry": "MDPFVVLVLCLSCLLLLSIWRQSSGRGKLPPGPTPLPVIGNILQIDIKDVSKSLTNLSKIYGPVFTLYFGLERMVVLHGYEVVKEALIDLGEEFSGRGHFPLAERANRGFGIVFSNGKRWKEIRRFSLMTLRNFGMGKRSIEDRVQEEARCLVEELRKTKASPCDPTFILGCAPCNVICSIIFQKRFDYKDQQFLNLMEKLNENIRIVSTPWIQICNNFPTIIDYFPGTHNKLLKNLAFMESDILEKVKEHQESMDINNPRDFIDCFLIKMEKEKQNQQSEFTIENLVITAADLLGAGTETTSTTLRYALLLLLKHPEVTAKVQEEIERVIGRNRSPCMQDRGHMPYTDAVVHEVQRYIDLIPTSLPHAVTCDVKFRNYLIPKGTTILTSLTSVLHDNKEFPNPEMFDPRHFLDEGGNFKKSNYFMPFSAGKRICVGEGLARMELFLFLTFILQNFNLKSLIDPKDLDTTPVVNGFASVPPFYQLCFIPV", "UniProt P10635, whole entry": "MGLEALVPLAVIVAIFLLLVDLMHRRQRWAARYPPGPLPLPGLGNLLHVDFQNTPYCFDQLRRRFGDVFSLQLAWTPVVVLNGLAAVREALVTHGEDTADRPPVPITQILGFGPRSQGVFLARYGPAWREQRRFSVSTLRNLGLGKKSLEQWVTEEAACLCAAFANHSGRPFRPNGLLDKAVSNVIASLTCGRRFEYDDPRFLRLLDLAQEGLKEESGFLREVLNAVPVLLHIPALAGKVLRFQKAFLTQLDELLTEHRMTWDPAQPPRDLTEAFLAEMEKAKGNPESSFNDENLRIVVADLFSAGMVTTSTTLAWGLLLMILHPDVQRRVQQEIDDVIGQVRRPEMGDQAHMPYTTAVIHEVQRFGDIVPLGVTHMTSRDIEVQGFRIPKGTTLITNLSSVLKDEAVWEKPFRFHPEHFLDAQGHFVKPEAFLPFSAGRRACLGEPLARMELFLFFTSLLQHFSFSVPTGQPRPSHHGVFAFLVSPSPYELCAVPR"}, "source": "ChEMBL document CHEMBL4368923", "about": "(J Med Chem, 2019)", "key": {"[1]": {"assay": "Solubility of the compound in deionized water at pH 7", "settings": "buffer"}, "Cytochrome P450 2C19": {"target": "Cytochrome P450 2C19 (Homo sapiens, UniProt P33261)"}, "Cytochrome P450 2D6": {"target": "Cytochrome P450 2D6 (Homo sapiens, UniProt P10635)"}}, "data": [{"smiles": "Cc1cc(/C=C/C#N)cc(C)c1Oc1ccnc(Nc2ccc(CN3CCN(S(C)(=O)=O)CC3)cc2)n1", "values": [{"measurement": "solubility", "setting": "[1]", "result": 30.9, "unit": "µg/mL"}, {"measurement": "IC50", "setting": "Cytochrome P450 2C19", "result": 27, "unit": "µM"}, {"measurement": "IC50", "setting": "Cytochrome P450 2D6", "result": "> 50", "unit": "µM"}]}]}
